Data source: PubChem BioAssay AID602196 (INSERM, 2012)
In all, the deposit lists about 23,000 reagents; shown is an unselected part. 455 of them (2%) count as active. 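Active includes both protection and sensitisation; some change values fall well beyond the stated -50 to +50 range.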 Further read-outs or replicates are left out here. Not stated in the record: the amount of reagent.

- Purpose: 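Modifiers of cisplatin sensitivity in A549 cells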
- System: human A549 lung cancer cells
- Knock-down reagent: siRNA pair against human genes
- Duration: 48 h transfection before cisplatin; time from cisplatin to read-out not stated
- Conditions: cisplatin at a dose killing half of control-siRNA cells; exact dose and duration not given
- Measured: 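Shift in cisplatin death relative to control siRNA, from -50 (all cells die) to +50 (no cells die); siRNAs harmful on their own scored 0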
- Direction: two-siRNA summed score (-2 to +2): higher = both siRNAs protect from cisplatin killing; -2 means both sensitise; mean protection from cisplatin (shift in death): higher = protection from cisplatin killing
- Hit rule: 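Each siRNA scores 0 if harmful alone by LDH or WST-1, otherwise +1 if it reduces and -1 if it increases cisplatin killing; a gene is active when both siRNAs agree (sum +2 or -2)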
- Meaning of the calls: active = both siRNAs shift cisplatin killing the same way; inactive = no consistent shift, or siRNA harmful alone

With HEMGN, what does the deposit list?
two-siRNA summed score (-2 to +2): 0; mean protection from cisplatin (shift in death) (%): 14.1; call: inactive

What did the screen give for KPNA3?
two-siRNA summed score (-2 to +2): 0; mean protection from cisplatin (shift in death) (%): 14.7; call: inactive

Which result is listed for SHARPIN?
two-siRNA summed score (-2 to +2): 1; mean protection from cisplatin (shift in death) (%): 20.5; call: inactive

With FMO5, how do the results read?
two-siRNA summed score (-2 to +2): 0; mean protection from cisplatin (shift in death) (%): -27; call: inactive

What did the screen give for IL33?
two-siRNA summed score (-2 to +2): 0; mean protection from cisplatin (shift in death) (%): 5.3; call: inactive

With CYP4B1, what was measured?
two-siRNA summed score (-2 to +2): 0; mean protection from cisplatin (shift in death) (%): 4; call: inactive

With FPGS, what was measured?
two-siRNA summed score (-2 to +2): 0; mean protection from cisplatin (shift in death) (%): -3.9; call: inactive

With S100A14, how do the results read?
two-siRNA summed score (-2 to +2): 0; mean protection from cisplatin (shift in death) (%): 5.5; call: inactive

What did the screen give for FAM156A?
two-siRNA summed score (-2 to +2): 0; mean protection from cisplatin (shift in death) (%): 1.3; call: inactive

What is on record for KRT86?
two-siRNA summed score (-2 to +2): 1; mean protection from cisplatin (shift in death) (%): 4.6; call: inactive

What is on record for LOC157693?
two-siRNA summed score (-2 to +2): 1; mean protection from cisplatin (shift in death) (%): 12.2; call: inactive

For CPD, how do the results read?
two-siRNA summed score (-2 to +2): -1; mean protection from cisplatin (shift in death) (%): -8.5; call: inactive

For CRYBB3, how do the results read?
two-siRNA summed score (-2 to +2): -1; mean protection from cisplatin (shift in death) (%): -13.5; call: inactive

With STRA6, what was measured?
two-siRNA summed score (-2 to +2): 0; mean protection from cisplatin (shift in death) (%): 8.1; call: inactive

What is on record for GPR161?
two-siRNA summed score (-2 to +2): -1; mean protection from cisplatin (shift in death) (%): -4.9; call: inactive

With CCL3, what was measured?
two-siRNA summed score (-2 to +2): 0; mean protection from cisplatin (shift in death) (%): 4; call: inactive

With DEFB103B, what does the deposit list?
two-siRNA summed score (-2 to +2): 0; mean protection from cisplatin (shift in death) (%): 2.6; call: inactive

For LOC400123, how do the results read?
two-siRNA summed score (-2 to +2): 0; mean protection from cisplatin (shift in death) (%): -0.6; call: inactive

How did the screen score ERV3-1?
two-siRNA summed score (-2 to +2): 2; mean protection from cisplatin (shift in death) (%): 9.9; call: active

How did the screen score LINC02716?
two-siRNA summed score (-2 to +2): 0; mean protection from cisplatin (shift in death) (%): 4.8; call: inactive

Which result is listed for OR10A4?
two-siRNA summed score (-2 to +2): 1; mean protection from cisplatin (shift in death) (%): 20.9; call: inactive

For SAGE4P, what does the deposit list?
two-siRNA summed score (-2 to +2): 0; mean protection from cisplatin (shift in death) (%): 12; call: inactive

With GCNT3, how do the results read?
two-siRNA summed score (-2 to +2): 1; mean protection from cisplatin (shift in death) (%): 8.8; call: inactive

For FGL2, what was measured?
two-siRNA summed score (-2 to +2): 0; mean protection from cisplatin (shift in death) (%): -2.6; call: inactive

For ATP6AP2, how do the results read?
two-siRNA summed score (-2 to +2): 0; mean protection from cisplatin (shift in death) (%): 8.1; call: inactive

For PPCDC, what was measured?
two-siRNA summed score (-2 to +2): 0; mean protection from cisplatin (shift in death) (%): 1.8; call: inactive

What is on record for LOC388076?
two-siRNA summed score (-2 to +2): 0; mean protection from cisplatin (shift in death) (%): 12.1; call: inactive

Which result is listed for LOC440770?
two-siRNA summed score (-2 to +2): 1; mean protection from cisplatin (shift in death) (%): 8.7; call: inactive

How did the screen score LOC389772?
two-siRNA summed score (-2 to +2): 0; mean protection from cisplatin (shift in death) (%): 7.7; call: inactive

How did the screen score ZBTB43?
two-siRNA summed score (-2 to +2): 0; mean protection from cisplatin (shift in death) (%): -2.3; call: inactive

With LOC284623, what does the deposit list?
two-siRNA summed score (-2 to +2): 0; mean protection from cisplatin (shift in death) (%): -3.4; call: inactive
